Source: publication PMC4344508

Tests used:
[1] = target: T1, Luzp4-6His (Homo sapiens) (UniProt Q9P127); experiment: UV crosslinking; settings: higher KCl (300-500 mM); UV crosslinking with 100, 300 or 500 mM KCl (Fig. 2A) or 100 mM NaCl (Fig. 2B); pH and temperature not given (cited earlier paper); recombinant protein; residues 1-313; protein details: C-terminal 6xHis (pET24b); label: 32P; single-stranded DNA
T1 sequence (looked up): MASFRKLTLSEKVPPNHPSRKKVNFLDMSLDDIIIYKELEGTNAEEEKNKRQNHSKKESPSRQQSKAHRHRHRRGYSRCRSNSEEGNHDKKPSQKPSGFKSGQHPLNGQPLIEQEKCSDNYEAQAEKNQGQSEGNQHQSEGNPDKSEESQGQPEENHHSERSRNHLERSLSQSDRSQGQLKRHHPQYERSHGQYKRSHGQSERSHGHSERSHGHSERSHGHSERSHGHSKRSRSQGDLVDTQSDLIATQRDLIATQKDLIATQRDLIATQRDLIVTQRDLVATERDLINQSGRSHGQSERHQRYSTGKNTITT

GB1-Alyref-6His = experiment: UV crosslinking; settings: very weak binding; UV crosslinking with 100, 300 or 500 mM KCl (Fig. 2A) or 100 mM NaCl (Fig. 2B); pH and temperature not given (cited earlier paper); recombinant protein; protein details: N-terminal GB1, C-terminal 6xHis; label: 32P; single-stranded DNA

“CTCTAGATCAACCACTTTGT [ssDNA oligonucleotide]”: binds more weakly [1]; binds more weakly (GB1-Alyref-6His).

The exact form of at least one protein or probe is not confirmed. The comparison behind a weaker result is the experiment's own reference, which may not be listed here. For some assays here: Where a protein sequence is shown, tags need not be part of it.
